In the supplement of paper PMC6411743:
± gives the standard deviation of the averaged measurements. The list shows a part of the results, in another mix than the full data.

Protein sequences, listed by entry. Tags and fused reporters are not part of them. Lines headed by an entry give the natural chain unless they say otherwise; changes in a name come on top.
UniProt Q9NYS0: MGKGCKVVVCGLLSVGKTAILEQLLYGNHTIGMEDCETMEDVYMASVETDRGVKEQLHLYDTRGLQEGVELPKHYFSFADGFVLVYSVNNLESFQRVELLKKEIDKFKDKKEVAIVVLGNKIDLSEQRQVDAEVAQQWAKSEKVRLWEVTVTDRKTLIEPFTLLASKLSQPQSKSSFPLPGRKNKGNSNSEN
UniProt Q9Y5R8, whole entry: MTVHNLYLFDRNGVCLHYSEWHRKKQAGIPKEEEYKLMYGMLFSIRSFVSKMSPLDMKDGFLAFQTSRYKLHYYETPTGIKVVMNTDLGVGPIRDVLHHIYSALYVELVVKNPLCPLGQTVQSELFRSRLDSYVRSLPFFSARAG
UniProt Q86VS8: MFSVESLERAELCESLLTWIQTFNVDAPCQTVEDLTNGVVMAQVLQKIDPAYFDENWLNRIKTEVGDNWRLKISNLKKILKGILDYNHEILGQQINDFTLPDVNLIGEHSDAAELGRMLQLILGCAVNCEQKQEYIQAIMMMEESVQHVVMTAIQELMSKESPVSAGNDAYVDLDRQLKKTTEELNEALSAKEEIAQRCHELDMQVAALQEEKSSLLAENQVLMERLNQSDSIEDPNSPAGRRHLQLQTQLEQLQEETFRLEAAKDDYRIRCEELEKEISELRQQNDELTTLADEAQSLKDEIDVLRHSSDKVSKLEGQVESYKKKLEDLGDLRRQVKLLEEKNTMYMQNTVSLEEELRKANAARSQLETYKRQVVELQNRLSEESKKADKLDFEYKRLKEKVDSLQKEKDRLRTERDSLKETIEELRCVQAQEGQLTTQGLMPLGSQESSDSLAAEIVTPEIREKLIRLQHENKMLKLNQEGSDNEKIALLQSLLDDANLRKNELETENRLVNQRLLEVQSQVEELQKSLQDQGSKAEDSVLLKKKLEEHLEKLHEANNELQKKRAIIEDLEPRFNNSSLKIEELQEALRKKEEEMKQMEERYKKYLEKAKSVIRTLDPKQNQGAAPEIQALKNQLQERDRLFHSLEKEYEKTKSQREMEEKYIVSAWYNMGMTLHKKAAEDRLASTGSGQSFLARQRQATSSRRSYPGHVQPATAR
UniProt Q96N67: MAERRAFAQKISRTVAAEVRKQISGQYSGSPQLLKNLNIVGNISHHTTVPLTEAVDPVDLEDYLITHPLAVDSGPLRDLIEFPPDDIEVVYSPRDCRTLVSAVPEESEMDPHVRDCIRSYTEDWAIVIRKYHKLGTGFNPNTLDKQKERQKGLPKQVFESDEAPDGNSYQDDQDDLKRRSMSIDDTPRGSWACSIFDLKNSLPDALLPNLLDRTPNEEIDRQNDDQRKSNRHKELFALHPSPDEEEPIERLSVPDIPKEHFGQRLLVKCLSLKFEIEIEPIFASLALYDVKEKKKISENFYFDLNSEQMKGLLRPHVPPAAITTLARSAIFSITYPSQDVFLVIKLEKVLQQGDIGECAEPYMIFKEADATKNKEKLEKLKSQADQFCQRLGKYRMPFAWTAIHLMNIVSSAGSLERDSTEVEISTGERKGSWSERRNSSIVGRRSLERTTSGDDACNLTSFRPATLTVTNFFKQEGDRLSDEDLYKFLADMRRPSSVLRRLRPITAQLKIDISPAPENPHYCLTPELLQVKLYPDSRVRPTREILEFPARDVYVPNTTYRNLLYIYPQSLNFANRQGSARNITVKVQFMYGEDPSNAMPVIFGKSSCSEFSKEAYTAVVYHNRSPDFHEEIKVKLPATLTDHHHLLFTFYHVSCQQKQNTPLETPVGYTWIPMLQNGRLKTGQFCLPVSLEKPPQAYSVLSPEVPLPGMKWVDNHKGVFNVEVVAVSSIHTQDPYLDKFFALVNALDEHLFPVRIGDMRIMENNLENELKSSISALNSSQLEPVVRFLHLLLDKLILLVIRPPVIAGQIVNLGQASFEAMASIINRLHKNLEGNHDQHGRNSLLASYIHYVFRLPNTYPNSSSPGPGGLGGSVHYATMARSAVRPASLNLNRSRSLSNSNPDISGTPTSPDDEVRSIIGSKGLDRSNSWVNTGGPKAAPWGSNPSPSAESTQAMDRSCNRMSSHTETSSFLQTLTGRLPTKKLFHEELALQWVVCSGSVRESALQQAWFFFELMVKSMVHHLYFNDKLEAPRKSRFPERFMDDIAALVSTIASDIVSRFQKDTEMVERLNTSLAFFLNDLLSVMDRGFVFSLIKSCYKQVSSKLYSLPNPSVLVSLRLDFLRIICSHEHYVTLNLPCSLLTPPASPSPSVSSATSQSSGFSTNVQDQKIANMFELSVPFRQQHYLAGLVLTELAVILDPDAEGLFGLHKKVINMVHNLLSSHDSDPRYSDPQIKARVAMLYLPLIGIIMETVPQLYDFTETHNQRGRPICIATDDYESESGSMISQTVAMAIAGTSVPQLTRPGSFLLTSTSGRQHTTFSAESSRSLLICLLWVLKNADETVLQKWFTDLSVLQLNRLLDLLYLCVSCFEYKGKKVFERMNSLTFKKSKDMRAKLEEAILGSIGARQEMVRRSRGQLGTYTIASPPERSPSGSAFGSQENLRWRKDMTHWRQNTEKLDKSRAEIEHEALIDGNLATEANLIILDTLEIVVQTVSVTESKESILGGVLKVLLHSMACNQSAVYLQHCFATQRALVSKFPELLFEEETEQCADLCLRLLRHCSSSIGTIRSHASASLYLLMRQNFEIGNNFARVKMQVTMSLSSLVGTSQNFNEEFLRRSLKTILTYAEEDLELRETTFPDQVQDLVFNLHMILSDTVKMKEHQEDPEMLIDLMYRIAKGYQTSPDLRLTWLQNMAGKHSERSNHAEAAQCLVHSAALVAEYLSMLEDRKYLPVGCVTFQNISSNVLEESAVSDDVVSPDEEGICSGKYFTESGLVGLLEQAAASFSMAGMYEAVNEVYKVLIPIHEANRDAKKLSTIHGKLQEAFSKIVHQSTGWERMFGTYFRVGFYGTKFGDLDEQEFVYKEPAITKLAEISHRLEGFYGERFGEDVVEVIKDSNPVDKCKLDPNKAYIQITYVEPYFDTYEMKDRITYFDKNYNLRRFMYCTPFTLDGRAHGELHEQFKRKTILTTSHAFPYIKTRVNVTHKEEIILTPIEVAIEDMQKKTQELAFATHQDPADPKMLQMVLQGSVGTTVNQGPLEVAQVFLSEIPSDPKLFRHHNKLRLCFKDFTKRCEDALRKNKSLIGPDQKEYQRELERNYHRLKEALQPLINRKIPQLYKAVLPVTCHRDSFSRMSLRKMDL
UniProt Q13686: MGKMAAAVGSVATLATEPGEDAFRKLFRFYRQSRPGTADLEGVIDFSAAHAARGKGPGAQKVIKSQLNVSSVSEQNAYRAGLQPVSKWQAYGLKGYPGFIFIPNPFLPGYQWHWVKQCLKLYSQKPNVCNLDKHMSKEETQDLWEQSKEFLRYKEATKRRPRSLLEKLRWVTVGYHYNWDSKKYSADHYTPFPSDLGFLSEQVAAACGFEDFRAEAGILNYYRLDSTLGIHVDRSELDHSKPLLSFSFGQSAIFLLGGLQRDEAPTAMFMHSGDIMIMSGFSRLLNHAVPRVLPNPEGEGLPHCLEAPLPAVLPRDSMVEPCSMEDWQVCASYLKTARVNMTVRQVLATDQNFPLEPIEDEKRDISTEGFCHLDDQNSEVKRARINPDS
UniProt P29017: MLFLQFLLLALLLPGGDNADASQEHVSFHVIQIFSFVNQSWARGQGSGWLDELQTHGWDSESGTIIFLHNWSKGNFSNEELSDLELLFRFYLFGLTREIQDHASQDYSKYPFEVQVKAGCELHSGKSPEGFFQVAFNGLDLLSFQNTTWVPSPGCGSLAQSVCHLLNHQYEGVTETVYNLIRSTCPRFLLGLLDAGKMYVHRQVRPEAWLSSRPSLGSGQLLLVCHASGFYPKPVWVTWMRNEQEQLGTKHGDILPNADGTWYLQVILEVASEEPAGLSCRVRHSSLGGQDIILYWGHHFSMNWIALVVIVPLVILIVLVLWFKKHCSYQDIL
UniProt P63241: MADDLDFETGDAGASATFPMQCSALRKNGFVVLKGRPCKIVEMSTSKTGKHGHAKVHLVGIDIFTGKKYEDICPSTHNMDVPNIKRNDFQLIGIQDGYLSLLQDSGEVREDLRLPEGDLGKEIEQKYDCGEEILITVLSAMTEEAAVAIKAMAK
UniProt Q16543: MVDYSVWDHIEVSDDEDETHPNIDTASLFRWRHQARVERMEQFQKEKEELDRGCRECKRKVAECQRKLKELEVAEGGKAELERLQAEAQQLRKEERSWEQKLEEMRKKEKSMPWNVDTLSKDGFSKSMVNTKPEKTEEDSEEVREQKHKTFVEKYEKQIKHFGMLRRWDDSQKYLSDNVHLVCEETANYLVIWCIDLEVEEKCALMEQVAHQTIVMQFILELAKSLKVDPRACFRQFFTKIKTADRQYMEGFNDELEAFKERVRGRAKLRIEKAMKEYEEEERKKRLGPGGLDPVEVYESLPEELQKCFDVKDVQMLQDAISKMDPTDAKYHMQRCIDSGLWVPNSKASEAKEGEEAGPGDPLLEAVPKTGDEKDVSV
UniProt P48730: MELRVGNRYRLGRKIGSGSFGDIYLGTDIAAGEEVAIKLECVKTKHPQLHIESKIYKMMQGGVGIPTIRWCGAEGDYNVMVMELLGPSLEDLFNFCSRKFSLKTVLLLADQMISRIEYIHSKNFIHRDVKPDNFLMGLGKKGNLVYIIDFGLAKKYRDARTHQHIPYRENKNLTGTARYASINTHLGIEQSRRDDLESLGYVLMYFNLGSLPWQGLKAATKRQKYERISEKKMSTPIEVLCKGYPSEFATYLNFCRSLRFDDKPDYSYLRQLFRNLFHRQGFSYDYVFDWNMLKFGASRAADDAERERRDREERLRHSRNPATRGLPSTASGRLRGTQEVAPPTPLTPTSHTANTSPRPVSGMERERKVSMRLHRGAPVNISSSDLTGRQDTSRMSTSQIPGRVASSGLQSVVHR
UniProt P47736: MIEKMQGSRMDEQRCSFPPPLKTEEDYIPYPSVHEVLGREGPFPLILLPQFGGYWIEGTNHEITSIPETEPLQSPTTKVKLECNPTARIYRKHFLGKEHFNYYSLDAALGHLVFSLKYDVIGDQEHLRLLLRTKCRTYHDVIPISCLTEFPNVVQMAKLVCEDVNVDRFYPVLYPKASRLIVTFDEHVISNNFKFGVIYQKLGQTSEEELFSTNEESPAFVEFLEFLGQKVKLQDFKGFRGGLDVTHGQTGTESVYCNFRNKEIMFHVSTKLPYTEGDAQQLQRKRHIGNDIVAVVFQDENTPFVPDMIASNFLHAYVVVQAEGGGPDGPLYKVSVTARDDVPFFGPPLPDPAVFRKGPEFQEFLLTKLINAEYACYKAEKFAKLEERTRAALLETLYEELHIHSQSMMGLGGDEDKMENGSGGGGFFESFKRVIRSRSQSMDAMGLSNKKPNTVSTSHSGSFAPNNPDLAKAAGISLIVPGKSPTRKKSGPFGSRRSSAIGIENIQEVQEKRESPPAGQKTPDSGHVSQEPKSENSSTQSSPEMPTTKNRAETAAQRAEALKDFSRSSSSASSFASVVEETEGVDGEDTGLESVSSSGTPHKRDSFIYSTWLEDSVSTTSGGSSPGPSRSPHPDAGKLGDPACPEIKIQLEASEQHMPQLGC
UniProt P80404: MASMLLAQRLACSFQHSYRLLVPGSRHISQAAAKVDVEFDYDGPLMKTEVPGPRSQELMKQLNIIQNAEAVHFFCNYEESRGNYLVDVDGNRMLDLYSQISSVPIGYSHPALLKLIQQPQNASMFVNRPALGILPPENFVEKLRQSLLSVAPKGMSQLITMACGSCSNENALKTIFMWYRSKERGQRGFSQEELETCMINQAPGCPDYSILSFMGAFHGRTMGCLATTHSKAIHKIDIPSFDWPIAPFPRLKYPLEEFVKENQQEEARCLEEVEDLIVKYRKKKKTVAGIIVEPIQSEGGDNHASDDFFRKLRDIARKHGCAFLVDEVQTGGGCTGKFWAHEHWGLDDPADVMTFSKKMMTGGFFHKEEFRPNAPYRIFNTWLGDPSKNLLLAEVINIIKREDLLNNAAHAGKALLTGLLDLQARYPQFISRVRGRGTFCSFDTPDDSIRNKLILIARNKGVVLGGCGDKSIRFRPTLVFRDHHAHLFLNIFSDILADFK
UniProt O75674: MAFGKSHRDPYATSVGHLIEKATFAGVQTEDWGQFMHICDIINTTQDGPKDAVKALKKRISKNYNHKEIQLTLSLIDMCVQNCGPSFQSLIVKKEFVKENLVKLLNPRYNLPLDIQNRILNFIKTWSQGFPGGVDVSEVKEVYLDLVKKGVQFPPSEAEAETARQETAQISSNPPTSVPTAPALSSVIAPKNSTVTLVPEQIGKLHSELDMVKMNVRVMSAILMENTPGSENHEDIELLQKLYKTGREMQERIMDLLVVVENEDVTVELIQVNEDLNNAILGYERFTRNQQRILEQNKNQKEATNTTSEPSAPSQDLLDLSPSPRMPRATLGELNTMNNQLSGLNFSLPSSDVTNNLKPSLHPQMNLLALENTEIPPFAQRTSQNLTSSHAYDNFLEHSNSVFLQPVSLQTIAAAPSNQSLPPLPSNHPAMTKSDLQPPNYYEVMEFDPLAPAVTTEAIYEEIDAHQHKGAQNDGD

Compound: Nc1ncnc2c1ncn2[C@@H]1O[C@H](COP(=O)(O)OP(=O)(O)OP(=O)(O)O)[C@@H](O)[C@H]1O [adenosine triphosphate]
Assay: NP40-soluble protein abundance relative to vehicle (solubility fold change) (ratio); higher = more soluble protein in presence of ATP
Summary of the method: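 Eight concentrations, 0.1 to 10 mM, were tested on Jurkat crude lysate for 10 min at room temperature and then 3 min at 37 °C, in three independent experiments. The lysate was solubilised with 0.8% NP40 and benzonase, ultracentrifuged, and the supernatant TMT-labelled for LC-MS/MS. Each value is the fold change against the detergent-processed vehicle in its own replicate, from vsn-normalised intensities.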

Target	NP40-soluble protein abundance (concentration: 1mM)	NP40-soluble protein abundance (concentration: 2mM)	NP40-soluble protein abundance (concentration: 4mM)	NP40-soluble protein abundance (concentration: 6mM)	NP40-soluble protein abundance (concentration: 8mM)	NP40-soluble protein abundance (concentration: 10mM)
K7EKE6 and related entries (UniProt P36776)	1.01 ± 0.045	0.998 ± 0.061	0.977 ± 0.041	0.963 ± 0.064	0.996 ± 0.036	0.984 ± 0.054
H0YAH3 and related entries (UniProt Q86SF2)	1.05 ± 0.052	1.02 ± 0.052	1.03 ± 0.075	0.976 ± 0.092	1.05 ± 0.024	0.99 ± 0.065
G5E9P3 and related entries (UniProt Q9NYS0)	1.4 ± 0.2	1.22 ± 0.12	1.18 ± 0.03	1.19 ± 0.025	1.09 ± 0.075	1.014 ± 0.0066
I3L3S0 and related entries (UniProt Q9Y5R8)	1.02 ± 0.22	0.959 ± 0.13	0.979 ± 0.2	0.85 ± 0.19	0.933 ± 0.11	0.987 ± 0.13
H0YDM4 and related entries (UniProt Q86VS8)	0.931 ± 0.066	0.926 ± 0.028	0.914 ± 0.041	0.96 ± 0.076	0.944 ± 0.037	0.884 ± 0.041
H0Y7L2 and related entries (UniProt Q96N67)	1.24 ± 0.045	1.21 ± 0.014	1.21 ± 0.019	1.17 ± 0.023	1.26 ± 0.0048	1.2 ± 0.058
K7ERW4 and related entries (UniProt Q6AI12)	0.961 ± 0.17	0.991 ± 0.21	0.964 ± 0.29	0.872 ± 0.26	0.925 ± 0.2	0.942 ± 0.25
K7EIY1 and related entries (UniProt Q9Y421)	0.852 ± 0.029	0.868 ± 0.046	0.88 ± 0.083	0.991 ± 0.088	1.01 ± 0.043	0.953 ± 0.13
H3BMQ0 and related entries (UniProt P49815)	1.01 ± 0.021	0.981 ± 0.029	0.959 ± 0.02	0.939 ± 0.066	0.955 ± 0.023	0.963 ± 0.018
H0Y679 and related entries (UniProt Q92733)	1.01 ± 0.074	1.03 ± 0.016	0.996 ± 0.049	0.992 ± 0.068	0.952 ± 0.048	0.974 ± 0.028
H0YE91 and related entries (UniProt Q15782)	1.12 ± 0.08	1.13 ± 0.12	1.11 ± 0.084	1.15 ± 0.19	1.14 ± 0.16	1.14 ± 0.16
H0YJF3 and related entries (UniProt Q13686)	0.942 ± 0.027	1.01 ± 0.13	1.04 ± 0.06	0.899 ± 0.12	0.907 ± 0.14	1.05 ± 0.18
H0Y6Y6 and related entries (UniProt P29017)	0.891 ± 0.06	1.02 ± 0.11	1.02 ± 0.16	0.934 ± 0.018	0.92 ± 0.043	0.896 ± 0.0039
I3L397 and related entries (UniProt P63241)	0.89 ± 0.1	0.875 ± 0.1	0.852 ± 0.089	0.86 ± 0.13	0.869 ± 0.1	0.866 ± 0.12
K7EL68 and related entries (UniProt Q16543)	0.959 ± 0.059	0.941 ± 0.02	0.911 ± 0.033	0.97 ± 0.045	0.925 ± 0.034	0.9204 ± 0.0065
H0Y2S9 and related entries (UniProt Q6WCQ1)	1.19 ± 0.049	1.24 ± 0.017	1.366 ± 0.0052	1.38 ± 0.08	1.35 ± 0.059	1.41 ± 0.058
J3KNF5 and related entries (UniProt O15078)	0.986 ± 0.02	0.934 ± 0.031	0.997 ± 0.053	1 ± 0.027	1.04 ± 0.046	0.993 ± 0.067
K7ELQ9 and related entries (UniProt Q6UW68)	1.04 ± 0.086	1.08 ± 0.075	1.04 ± 0.073	1.03 ± 0.11	1.09 ± 0.045	1.01 ± 0.045
H7BYT1 and related entries (UniProt P48730)	1.03 ± 0.071	1.01 ± 0.18	1 ± 0.21	1.07 ± 0.23	0.961 ± 0.25	0.997 ± 0.25
J3KPC5 and related entries (UniProt P47736)	0.924 ± 0.074	0.877 ± 0.057	0.881 ± 0.038	0.855 ± 0.066	0.849 ± 0.088	0.828 ± 0.082
J3KQJ1 and related entries (UniProt Q8NBJ7)	0.9379 ± 0.0089	0.957 ± 0.032	0.927 ± 0.025	0.97 ± 0.02	0.913 ± 0.054	0.912 ± 0.032
J3KNF4 and related entries (UniProt O14618)	0.962 ± 0.012	0.944 ± 0.017	0.933 ± 0.04	0.975 ± 0.028	0.934 ± 0.079	0.92 ± 0.048
H3BRN4 and related entries (UniProt P80404)	0.986 ± 0.067	1 ± 0.062	1.01 ± 0.037	0.908 ± 0.089	0.985 ± 0.031	0.98 ± 0.038
H7C5I3 and related entries (UniProt P35236)	0.991 ± 0.05	0.985 ± 0.041	1 ± 0.013	0.952 ± 0.053	0.966 ± 0.035	0.961 ± 0.02
H3BRF9 and related entries (UniProt Q96K21)	0.904 ± 0.035	0.939 ± 0.019	0.944 ± 0.037	0.913 ± 0.037	0.888 ± 0.028	0.909 ± 0.032
H0YKW3 and related entries (UniProt Q9H079)	0.987 ± 0.19	0.991 ± 0.17	0.961 ± 0.12	0.978 ± 0.2	1.05 ± 0.023	1.02 ± 0.027
I3L4I4 and related entries (UniProt O75674)	0.903 ± 0.029	0.8481 ± 0.0066	0.899 ± 0.11	1.02 ± 0.019	0.929 ± 0.055	0.935 ± 0.044
K7ES11 and related entries (UniProt Q9C0C9)	0.953 ± 0.018	0.9618 ± 0.0091	0.918 ± 0.012	0.95 ± 0.014	0.918 ± 0.0099	0.9279 ± 0.0068
J3KR97 and related entries (UniProt Q9BTW9)	1 ± 0.1	0.99 ± 0.082	0.973 ± 0.035	0.866 ± 0.13	0.977 ± 0.032	0.981 ± 0.056
K7EPJ5 and related entries (UniProt O60291)	0.927 ± 0.035	0.916 ± 0.044	0.899 ± 0.027	0.961 ± 0.031	0.905 ± 0.02	0.888 ± 0.018

Taken from above.
For NP40-soluble protein abundance (concentration: 8mM), H0Y6Y6 and related entries (UniProt P29017) is entered as 0.92 ± 0.043
For NP40-soluble protein abundance (concentration: 4mM), H7BYT1 and related entries (UniProt P48730) is entered as 1 ± 0.21
